Results are given in words; binding and its absence hold for the method and conditions named. Binding seen in cells or lysates may run through a third protein. Some results given as binding are weak or reduced against the parent protein; the word gives no strength.

Chains of the proteins cited; added tags and fusions are not shown. Lines headed by an entry give the natural chain unless they say otherwise; changes in a name come on top. A line that says so, or that is headed by a name, gives the form on record, which may keep a tag or linker.
ZNF207 K42E point mutant, 3xFLAG-tagged (O43670, form named): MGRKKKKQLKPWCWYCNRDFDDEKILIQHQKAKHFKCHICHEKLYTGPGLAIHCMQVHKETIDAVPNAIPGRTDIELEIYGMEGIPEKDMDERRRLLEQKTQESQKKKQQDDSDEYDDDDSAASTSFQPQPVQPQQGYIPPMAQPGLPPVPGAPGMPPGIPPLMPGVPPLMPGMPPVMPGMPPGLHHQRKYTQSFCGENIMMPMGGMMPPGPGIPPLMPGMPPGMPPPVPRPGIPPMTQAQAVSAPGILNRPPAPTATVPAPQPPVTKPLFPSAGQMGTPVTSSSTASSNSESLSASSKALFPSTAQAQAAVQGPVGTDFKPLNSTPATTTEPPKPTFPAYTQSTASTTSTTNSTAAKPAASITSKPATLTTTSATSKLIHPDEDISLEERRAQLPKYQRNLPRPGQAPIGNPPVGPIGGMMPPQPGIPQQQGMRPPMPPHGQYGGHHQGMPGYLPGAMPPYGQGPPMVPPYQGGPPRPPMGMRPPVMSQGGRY
ZNF207 open reading frame, siRNA-resistant, with a C-terminal 3xFLAG tag (wild type) (O43670, form named): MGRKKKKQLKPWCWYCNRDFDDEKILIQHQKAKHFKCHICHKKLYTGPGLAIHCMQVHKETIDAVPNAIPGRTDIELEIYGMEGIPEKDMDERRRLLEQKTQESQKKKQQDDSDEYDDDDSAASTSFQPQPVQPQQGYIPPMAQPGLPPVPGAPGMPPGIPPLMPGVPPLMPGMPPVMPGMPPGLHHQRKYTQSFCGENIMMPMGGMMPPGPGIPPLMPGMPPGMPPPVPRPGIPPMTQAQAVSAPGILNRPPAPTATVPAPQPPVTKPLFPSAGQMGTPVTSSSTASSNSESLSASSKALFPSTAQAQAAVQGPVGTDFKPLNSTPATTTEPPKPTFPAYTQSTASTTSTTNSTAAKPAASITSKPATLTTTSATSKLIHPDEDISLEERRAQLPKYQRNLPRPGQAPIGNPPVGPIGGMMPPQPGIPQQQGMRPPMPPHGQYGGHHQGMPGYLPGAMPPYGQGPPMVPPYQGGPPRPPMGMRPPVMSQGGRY
UniProt O75533: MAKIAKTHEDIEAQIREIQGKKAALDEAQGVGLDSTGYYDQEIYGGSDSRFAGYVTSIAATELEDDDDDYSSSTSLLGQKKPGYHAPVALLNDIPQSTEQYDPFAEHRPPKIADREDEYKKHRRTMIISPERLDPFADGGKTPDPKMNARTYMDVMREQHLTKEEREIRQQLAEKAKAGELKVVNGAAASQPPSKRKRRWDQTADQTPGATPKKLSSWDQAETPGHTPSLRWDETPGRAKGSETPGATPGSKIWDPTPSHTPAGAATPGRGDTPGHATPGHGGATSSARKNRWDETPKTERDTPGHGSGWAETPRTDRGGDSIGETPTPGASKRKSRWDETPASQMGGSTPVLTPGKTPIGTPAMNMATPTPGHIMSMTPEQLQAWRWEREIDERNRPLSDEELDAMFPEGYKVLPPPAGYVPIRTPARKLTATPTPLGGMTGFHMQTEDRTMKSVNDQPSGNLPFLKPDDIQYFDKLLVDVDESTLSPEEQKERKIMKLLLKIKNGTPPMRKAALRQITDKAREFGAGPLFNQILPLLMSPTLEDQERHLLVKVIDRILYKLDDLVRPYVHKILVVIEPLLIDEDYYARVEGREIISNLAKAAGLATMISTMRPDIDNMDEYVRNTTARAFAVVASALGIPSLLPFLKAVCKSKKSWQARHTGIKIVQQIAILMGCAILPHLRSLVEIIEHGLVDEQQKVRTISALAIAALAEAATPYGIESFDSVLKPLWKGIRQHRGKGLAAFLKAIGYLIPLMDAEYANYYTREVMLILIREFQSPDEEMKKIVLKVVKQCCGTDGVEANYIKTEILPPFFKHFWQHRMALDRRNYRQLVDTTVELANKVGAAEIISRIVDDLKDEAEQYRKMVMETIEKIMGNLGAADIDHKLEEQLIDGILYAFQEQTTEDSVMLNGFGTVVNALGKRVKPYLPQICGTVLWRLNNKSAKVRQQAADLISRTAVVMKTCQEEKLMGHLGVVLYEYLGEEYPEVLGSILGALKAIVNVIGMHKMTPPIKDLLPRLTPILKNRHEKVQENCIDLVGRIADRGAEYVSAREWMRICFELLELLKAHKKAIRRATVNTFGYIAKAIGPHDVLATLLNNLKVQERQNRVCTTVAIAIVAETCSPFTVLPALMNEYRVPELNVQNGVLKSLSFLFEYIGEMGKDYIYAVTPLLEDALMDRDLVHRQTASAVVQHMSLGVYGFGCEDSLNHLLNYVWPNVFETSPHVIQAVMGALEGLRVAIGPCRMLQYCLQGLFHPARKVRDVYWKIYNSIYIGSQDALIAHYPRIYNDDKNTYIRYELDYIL
UniProt O75643: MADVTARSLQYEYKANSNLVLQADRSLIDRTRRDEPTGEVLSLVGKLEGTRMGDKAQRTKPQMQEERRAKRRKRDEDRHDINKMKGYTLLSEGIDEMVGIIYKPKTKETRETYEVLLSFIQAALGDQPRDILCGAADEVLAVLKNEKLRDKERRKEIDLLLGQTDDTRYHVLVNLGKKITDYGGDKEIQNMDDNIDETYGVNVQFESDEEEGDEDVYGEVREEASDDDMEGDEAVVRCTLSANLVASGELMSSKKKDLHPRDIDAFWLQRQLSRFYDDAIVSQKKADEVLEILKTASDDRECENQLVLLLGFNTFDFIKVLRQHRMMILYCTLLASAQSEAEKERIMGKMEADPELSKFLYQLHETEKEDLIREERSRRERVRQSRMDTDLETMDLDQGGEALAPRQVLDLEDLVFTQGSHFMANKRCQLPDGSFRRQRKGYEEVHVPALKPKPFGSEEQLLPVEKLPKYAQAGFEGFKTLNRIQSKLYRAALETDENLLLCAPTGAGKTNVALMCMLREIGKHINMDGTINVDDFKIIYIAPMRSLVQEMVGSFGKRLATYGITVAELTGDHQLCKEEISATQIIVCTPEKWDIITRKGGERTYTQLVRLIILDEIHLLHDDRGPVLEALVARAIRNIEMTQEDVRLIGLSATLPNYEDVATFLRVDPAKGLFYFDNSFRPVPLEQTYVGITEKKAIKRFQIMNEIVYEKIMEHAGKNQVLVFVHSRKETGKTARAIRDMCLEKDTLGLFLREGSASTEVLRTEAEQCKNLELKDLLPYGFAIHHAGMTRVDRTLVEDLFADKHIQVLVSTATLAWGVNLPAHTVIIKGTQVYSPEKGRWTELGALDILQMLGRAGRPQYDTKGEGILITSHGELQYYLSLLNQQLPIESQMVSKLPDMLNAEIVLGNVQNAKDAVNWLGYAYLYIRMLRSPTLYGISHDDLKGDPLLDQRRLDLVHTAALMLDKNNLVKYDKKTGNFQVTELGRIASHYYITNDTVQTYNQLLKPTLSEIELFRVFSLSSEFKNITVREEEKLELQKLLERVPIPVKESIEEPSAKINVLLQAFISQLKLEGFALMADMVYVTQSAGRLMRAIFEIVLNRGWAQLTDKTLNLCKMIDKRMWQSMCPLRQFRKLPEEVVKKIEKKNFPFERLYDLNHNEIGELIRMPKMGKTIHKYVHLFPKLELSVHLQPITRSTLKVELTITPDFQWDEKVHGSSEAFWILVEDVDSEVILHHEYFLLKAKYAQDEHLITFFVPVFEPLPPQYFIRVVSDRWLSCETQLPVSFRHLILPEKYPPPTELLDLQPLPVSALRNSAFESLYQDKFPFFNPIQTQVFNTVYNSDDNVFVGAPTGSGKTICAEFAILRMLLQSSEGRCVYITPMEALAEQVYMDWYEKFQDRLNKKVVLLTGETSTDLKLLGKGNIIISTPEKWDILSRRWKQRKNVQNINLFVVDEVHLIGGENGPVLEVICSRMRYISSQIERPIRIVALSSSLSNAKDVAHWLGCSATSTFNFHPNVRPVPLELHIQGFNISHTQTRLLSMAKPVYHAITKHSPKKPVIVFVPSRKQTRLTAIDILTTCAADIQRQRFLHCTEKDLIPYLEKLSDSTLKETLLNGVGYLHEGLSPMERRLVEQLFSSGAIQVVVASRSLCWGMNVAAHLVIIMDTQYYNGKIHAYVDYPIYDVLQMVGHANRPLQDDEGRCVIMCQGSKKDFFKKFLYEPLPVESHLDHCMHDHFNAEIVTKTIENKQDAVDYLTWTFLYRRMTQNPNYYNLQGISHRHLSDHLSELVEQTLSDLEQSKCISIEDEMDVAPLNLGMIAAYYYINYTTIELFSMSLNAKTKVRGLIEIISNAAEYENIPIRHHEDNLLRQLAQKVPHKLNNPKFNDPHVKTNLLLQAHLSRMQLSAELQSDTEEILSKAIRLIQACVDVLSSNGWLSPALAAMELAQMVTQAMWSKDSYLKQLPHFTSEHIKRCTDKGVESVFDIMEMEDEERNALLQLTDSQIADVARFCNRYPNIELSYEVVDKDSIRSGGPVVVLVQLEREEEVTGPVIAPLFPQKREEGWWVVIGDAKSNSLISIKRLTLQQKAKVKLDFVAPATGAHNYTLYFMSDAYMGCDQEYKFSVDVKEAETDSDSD
UniProt P09012: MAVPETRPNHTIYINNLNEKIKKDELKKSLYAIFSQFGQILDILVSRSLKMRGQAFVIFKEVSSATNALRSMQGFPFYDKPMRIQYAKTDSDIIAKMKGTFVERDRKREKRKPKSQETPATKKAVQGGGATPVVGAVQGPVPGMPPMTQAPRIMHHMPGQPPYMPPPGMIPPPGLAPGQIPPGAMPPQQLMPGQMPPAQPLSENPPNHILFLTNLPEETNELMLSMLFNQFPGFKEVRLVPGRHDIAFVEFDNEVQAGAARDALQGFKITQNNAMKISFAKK
UniProt P08621: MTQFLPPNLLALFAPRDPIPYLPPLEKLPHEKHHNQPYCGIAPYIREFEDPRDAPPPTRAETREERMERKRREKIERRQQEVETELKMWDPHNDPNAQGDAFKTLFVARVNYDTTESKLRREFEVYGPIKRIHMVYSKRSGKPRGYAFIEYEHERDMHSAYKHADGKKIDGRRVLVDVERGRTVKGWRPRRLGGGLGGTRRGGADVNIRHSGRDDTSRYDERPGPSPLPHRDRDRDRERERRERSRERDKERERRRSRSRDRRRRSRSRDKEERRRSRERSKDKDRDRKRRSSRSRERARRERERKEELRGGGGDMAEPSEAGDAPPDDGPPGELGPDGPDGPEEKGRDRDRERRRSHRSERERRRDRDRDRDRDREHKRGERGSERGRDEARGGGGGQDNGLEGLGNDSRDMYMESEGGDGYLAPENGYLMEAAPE

Data on five molecules can be found in paper doi:10.1101/2025.04.25.648738.

In assay [1] the target is ZNF207 K42E point mutant, 3xFLAG-tagged (human) (UniProt O43670). The assay can be described thus: co-IP; anti-FLAG M2 magnetic beads on benzonase-treated lysates of HEK293 Flp-In cells expressing FLAG-tagged ZNF207 or its mutants (doxycycline 0.5 ug/mL, 20 h); IGEPAL buffer (50 mM Tris-HCl pH 7.5, 150 mM NaCl, 1% IGEPAL CA-630, 5% glycerol), 4 C, 4.5 h, four washes; western blot of endogenous partners. Background: In western blotting, separated proteins are transferred to a membrane and probed.

Assay [2] concerns the target ZNF207 open reading frame, siRNA-resistant, with a C-terminal 3xFLAG tag (wild type) (human) (UniProt O43670). The description is as above.

For the molecule SF3B1 (from UniProt O75533 1-1304), the binding result in assay [1] and in assay [2] was “binds” each time.
On to SNRNP200 (from UniProt O75643 1-2136), for which the binding result in assay [2] was “binds”.
On to SNRPA (from UniProt P09012 1-282), for which the binding entry in assay [2] is on record as “binds”.
In the case of SNRNP70 (from UniProt P08621 1-437), the binding result in assay [2] was “binds”.

B1: PRPF6 (protein, UniProt O94906 1-941)
chain: MNKKKKPFLGMPAPLGYVPGLGRGATGFTTRSDIGPARDANDPVDDRHAPPGKRTVGDQMKKNQAADDDDEDLNDTNYDEFNGYAGSLFSSGPYEKDDEEADAIYAALDKRMDERRKERREQREKEEIEKYRMERPKIQQQFSDLKRKLAEVTEEEWLSIPEVGDARNKRQRNPRYEKLTPVPDSFFAKHLQTGENHTSVDPRQTQFGGLNTPYPGGLNTPYPGGMTPGLMTPGTGELDMRKIGQARNTLMDMRLSQVSDSVSGQTVVDPKGYLTDLNSMIPTHGGDINDIKKARLLLKSVRETNPHHPPAWIASARLEEVTGKLQVARNLIMKGTEMCPKSEDVWLEAARLQPGDTAKAVVAQAVRHLPQSVRIYIRAAELETDIRAKKRVLRKALEHVPNSVRLWKAAVELEEPEDARIMLSRAVECCPTSVELWLALARLETYENARKVLNKARENIPTDRHIWITAAKLEEANGNTQMVEKIIDRAITSLRANGVEINREQWIQDAEECDRAGSVATCQAVMRAVIGIGIEEEDRKHTWMEDADSCVAHNALECARAIYAYALQVFPSKKSVWLRAAYFEKNHGTRESLEALLQRAVAHCPKAEVLWLMGAKSKWLAGDVPAARSILALAFQANPNSEEIWLAAVKLESENDEYERARRLLAKARSSAPTARVFMKSVKLEWVQDNIRAAQDLCEEALRHYEDFPKLWMMKGQIEEQKEMMEKAREAYNQGLKKCPHSTPLWLLLSRLEEKIGQLTRARAILEKSRLKNPKNPGLWLESVRLEYRAGLKNIANTLMAKALQECPNSGILWSEAIFLEARPQRRTKSVDALKKCEHDPHVLLAVAKLFWSQRKITKAREWFHRTVKIDSDLGDAWAFFYKFELQHGTEEQQEEVRKRCESAEPRHGELWCAVSKDIANWQKKIGDILRLVAGRIKNTF
Turning to B1, in assay [2], the binding entry is listed as “binds”.
